Positions count from the first letter of the chain named. Weaker means in comparison with the reference protein, sequence or condition of that experiment. Tags and fusion partners may be left off the protein sequences shown.
Columns and labels:
Test in all cases: EMSA
[1] = target: T1, Dcc1 K364A (Saccharomyces cerevisiae) (UniProt P25559); details: weak reduction, 6% native gel in 0.5x TBE, 4 C, DNA 1 uM unless stated, binding buffer, salt and pH not stated, recombinant protein
T1 sequence (looked up): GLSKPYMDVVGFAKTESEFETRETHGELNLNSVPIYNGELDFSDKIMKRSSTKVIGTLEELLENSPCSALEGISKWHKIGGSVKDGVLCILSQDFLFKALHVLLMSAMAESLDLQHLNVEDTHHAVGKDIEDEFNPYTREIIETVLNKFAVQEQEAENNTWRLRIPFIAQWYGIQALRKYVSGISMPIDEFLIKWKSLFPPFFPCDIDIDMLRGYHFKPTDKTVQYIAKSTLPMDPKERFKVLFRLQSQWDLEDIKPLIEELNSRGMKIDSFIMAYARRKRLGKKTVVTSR

[2] = target: T2, Dcc1 R367A (Saccharomyces cerevisiae) (UniProt P25559); details: 6% native gel in 0.5x TBE, 4 C, DNA 1 uM unless stated, binding buffer, salt and pH not stated, recombinant protein
T2 sequence (looked up): T1 sequence (looked up) with A275K, R278A

[3] = target: T3, Dcc1 R380A (Saccharomyces cerevisiae) (UniProt P25559); details: 6% native gel in 0.5x TBE, 4 C, DNA 1 uM unless stated, binding buffer, salt and pH not stated, recombinant protein
T3 sequence (looked up): T1 sequence (looked up) with A275K, R291A

[4] = target: T4, Dcc1 dWH3 del319-380 (Saccharomyces cerevisiae) (UniProt P25559); details: no shift at 1 uM DNA (Fig 4B), slight shift at reduced DNA, overexposed gel, 6% native gel in 0.5x TBE, 4 C, DNA 1 uM unless stated, binding buffer, salt and pH not stated, recombinant protein, residues 90-318, label: 5' 6-FAM, single-stranded DNA
T4 sequence (looked up): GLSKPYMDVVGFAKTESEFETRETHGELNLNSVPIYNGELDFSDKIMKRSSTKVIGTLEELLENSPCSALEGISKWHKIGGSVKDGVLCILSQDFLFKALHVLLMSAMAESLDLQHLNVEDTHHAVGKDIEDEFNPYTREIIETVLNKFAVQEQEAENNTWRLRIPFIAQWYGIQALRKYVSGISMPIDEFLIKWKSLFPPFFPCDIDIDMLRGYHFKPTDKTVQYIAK

[5] = residues 90-380, label: 5' 6-FAM on sense strand
[6] = residues 90-380, label: 5' 6-FAM, single-stranded DNA

Measured: binding result

TCTCCACAGGAAACGGAGGGGT (double strand) [22-mer dsDNA]
binds more weakly: [1]; [5] | [2]; [5] | [3]; [5]

TTTTTTTTTTTTTTTTTTTTTTTTT [25-mer oligo d(T)]
binds more weakly: [1]; [6] | [2]; [6] | [3]; [6] | [4]
